Reference: paper PMC3419649
No constants are given. Whether binding was seen depends on the method and setting. Binding seen in cells or lysates may run through a third protein. Some entries that bind do so weakly or less than the wild type.

Amino acid sequences for entries named in this document (tags omitted).
UniProt Q63690: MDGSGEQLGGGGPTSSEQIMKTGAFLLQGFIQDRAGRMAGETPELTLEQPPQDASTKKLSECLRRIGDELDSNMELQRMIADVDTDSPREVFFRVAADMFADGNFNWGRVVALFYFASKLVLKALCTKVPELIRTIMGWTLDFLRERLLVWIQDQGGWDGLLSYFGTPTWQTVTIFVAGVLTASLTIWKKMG
UniProt P49950: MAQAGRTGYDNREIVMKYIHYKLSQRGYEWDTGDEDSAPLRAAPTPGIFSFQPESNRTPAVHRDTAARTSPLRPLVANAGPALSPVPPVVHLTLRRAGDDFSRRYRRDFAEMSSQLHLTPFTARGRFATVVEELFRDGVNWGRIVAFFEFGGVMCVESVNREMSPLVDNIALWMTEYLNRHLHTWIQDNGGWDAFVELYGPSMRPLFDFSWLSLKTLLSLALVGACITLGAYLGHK

Experiments:
[1] = biological target: T1, Diva (rat (endogenous in PC12)) (UniProt Q99M66); experiment: proximity ligation; Duolink kit I on fixed PC12 cells (4% paraformaldehyde) with Diva and Bax/Bcl2 antibodies; cells treated with H2O2 (20 nM in the methods), 0 hr against 4 hr (Bax) or 8 hr (Bcl2); confocal microscopy
T1 sequence: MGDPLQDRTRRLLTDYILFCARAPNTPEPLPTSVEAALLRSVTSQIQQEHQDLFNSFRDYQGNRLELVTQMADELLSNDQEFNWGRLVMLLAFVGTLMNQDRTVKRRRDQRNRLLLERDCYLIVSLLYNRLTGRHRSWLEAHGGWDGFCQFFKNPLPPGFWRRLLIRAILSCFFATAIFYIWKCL

[2] = biological target: T1, Diva (rat (endogenous in PC12)); experiment: co-IP; endogenous proteins in PC12 protein extracts (M-PER) taken 0, 2, 4 and 8 hrs after 30 nM H2O2; Diva, Bcl2 or Bax antibody overnight at 4°C, Protein G Plus/Protein A agarose, 5 washes (10 mM Tris pH 7.4, 150 mM NaCl, 1% Triton X-100, EDTA, EGTA); western blot

Row | binding [1] | binding [2] | Substance
1 | binds | binds | Bax (from UniProt Q63690 1-192)
2 | binds | binds | Bcl2 (from UniProt P49950 1-236)
